Source: article PMC11614259
Results are given in words; binding and its absence hold for the method and conditions named. A result given as binding can be weak or reduced; the word gives no strength.

Target: Far11 (striatin-interacting protein, CNAG_00008) (C. neoformans H99) (UniProt J9VFL9)
Test: two-hybrid; Gal4 system; GBD fusions (pGBKT7) in Y2HGold crossed with GAD fusions (pGADT7) in Y187, 6-by-6; ADE2 and HIS3 reporters; SD dropout medium without histidine, adenine sulfate 10 mg/L, 3 mM 3-AT

**Q.** Which binding does the source give for “Pph22 (protein phosphatase 2A catalytic C subunit, CNAG_02177) (from UniProt J9VN16) (enzyme)” here?
**A.** binds
